Reference: PMC11746146 (Nature Structural & Molecular Biology, 2024)
Results are given in words; binding and its absence hold for the method and conditions named. Values belong to the binder of their own block, whether it stands above or below them.

Tests used:
[1] = target: non-farnesylated GBP1-R48A (human) (UniProt P32455); assay: SEC-MALS; GBP1-R48A and GBP1F-R48A; the nucleotide condition is not told in the legend; both purified
[2] = target: farnesylated GBP1F-R48A (human) (UniProt P32455); assay: as above

- binding [1]: no binding
B1: non-farnesylated GBP1-R48A (protein, UniProt P32455 1-592)
chain: MASEIHMTGPMCLIENTNGRLMANPEALKILSAITQPMVVVAIVGLYATGKSYLMNKLAGKKKGFSLGSTVQSHTKGIWMWCVPHPKKPGHILVLLDTEGLGDVEKGDNQNDSWIFALAVLLSSTFVYNSIGTINQQAMDQLYYVTELTHRIRSKSSPDENENEVEDSADFVSFFPDFVWTLRDFSLDLEADGQPLTPDEYLTYSLKLKKGTSQKDETFNLPRLCIRKFFPKKKCFVFDRPVHRRKLAQLEKLQDEELDPEFVQQVADFCSYIFSNSKTKTLSGGIQVNGPRLESLVLTYVNAISSGDLPCMENAVLALAQIENSAAVQKAIAHYEQQMGQKVQLPTETLQELLDLHRDSEREAIEVFIRSSFKDVDHLFQKELAAQLEKKRDDFCKQNQEASSDRCSALLQVIFSPLEEEVKAGIYSKPGGYRLFVQKLQDLKKKYYEEPRKGIQAEEILQTYLKSKESMTDAILQTDQTLTEKEKEIEVERVKAESAQASAKMLQEMQRKNEQMMEQKERSYQEHLKQLTEKMENDRVQLLKEQERTLALKLQEQEQLLKEGFQKESRIMKNEIQDLQTKMRRRKACTIS

- binding [2]: no binding
B2: farnesylated GBP1F-R48A (protein, UniProt P32455 1-592)
chain: B1 chain
modifications: C-terminal C15-farnesyl moiety (CaaX isoprenylation motif)
